Results from PubChem BioAssay AID493014 (National Center for Advancing Translational Sciences (NCATS), 2011).
The whole screen tested about 340,000 compounds, of which about 170 (0.05%) were called active. Inconclusive means that the source gave no clear call. Such entries were picked first, then a sample of the others. Calls follow the shape of the dose curve; as a rule, active = well fitted inhibition curve with a large enough effect in the signal ratio, with a control signal flat (not every such curve was filed as active); inconclusive = small, poorly fitted or top-dose-only effect, or effect the other way, or a change in a side signal; inactive = flat fitted curve, though single readings scatter; the % refers to the signal ratio. Potencies beside an inconclusive call are fits to weak or partial responses and may not hold up.

Assay: qHTS Assay to Find Inhibitors of Chronic Active B-Cell Receptor Signaling;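 as to activity change, negative = inhibition: plate controls were basal doxycycline-induced cells for no effect and cells given 10 µM MG132 for full effect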
Settings: ABC-DLBCL IkBa-CBG/CBR reporter, luminescence ratio (green luciferase fused to IkBa over red control in TMD8 lymphoma cells), 4 h; activity change, negative = inhibition: at 46.1 µM (top of the series) unless noted
In short: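 Cell line TMD8 (human ABC DLBCL), stably expressing tet-inducible CBG68-IkBa fusion and CBR; IMDM/0.5% FBS; cpd up to 46 uM; dox induction, 4 h, 37C/5% CO2; dual luminescence; green/red ratio; MG132 control.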
Potency is read from the fitted curve at half-maximal effect.

| SMILES | activity change, negative = inhibition | Potency |
| --- | --- | --- |
| Cc1sc(NC(=O)c2cccnc2)nc1-c1ccccc1 | inconclusive: 6.2% | – |
| Fc1ccc(-c2nc3c(-c4ccccc4)cnn3cc2CCN2CCOCC2)cc1 | – | inconclusive: 15.8 µM [falling, partial curve] |
| Cc1ccc(S(=O)(=O)NCCSC(C)(C)C)cc1 | inconclusive: 18.8% | – |
| CCOC(=O)c1cnc2ccccc2c1NCCO | inconclusive: 2.87% | – |
| CCCCCCSc1cc(-c2nc3ccc(C)cn3c2NCc2ccccc2)ccc1OC | inconclusive: 1.72% | – |
| COc1cc(NC(=O)C2CCCN(S(=O)(=O)c3ccc4c(c3)oc(=O)n4C)C2)cc(OC)c1 (stereo not given) | inactive: 2.54% | – |
| O=C(Nc1ccccc1)C1CC(=O)N(Cc2ccccc2)C1 (stereo not given) | inconclusive: -12.6% | – |
| CCc1cc(C(=O)N2CCN(c3ccccc3OC)CC2)sc1C | inactive: -2.37% | – |
| O=C(CN1CCOCC1)N1N=C(c2cccs2)CC1c1cccs1 (stereo not given) | inconclusive: 7.94% | – |
| C=CCn1c(SCC(=O)NCC(c2ccccc2)N(C)C)nnc1C1CCCCC1 (stereo not given) | inactive: -5.79% | – |
| Cc1ccc2nc(C)cc(Cl)c2c1 | inactive: -3.2% | – |
| COc1ccc(S(=O)(=O)N(CC(=O)Nc2cccnc2)c2ccccc2OC)cc1 | – | inconclusive: 1.03 µM [rising, full curve, poor fit] |
| COc1ccc(NC(=O)c2ccc(-n3nc(C)cc3C)cc2)cc1OC | inconclusive: 3.47% | – |
| CC(C)(C)c1ccc(/C=N/NC(=O)CN2CCS(=O)(=O)CC2)cc1 | inactive: 0.0198% | – |
| CC(=O)NC(CC(=O)N(Cc1ccccc1)c1ccc(C)cc1)c1ccccc1 (stereo not given) | inconclusive: -8% | – |
| O=C(Nc1ccc(S(=O)(=O)C(F)F)cc1)c1cccc(S(=O)(=O)N2CCOCC2)c1 | inactive: -0.114% | – |
| CCOC(=O)C1CCCN(CC(=O)Nc2c(C(=O)OC)[nH]c3ccc(C)cc23)C1 (stereo not given) | inactive: -8.41% | – |
| CCCCNC(=O)C(C1CCCCC1)N(CCN(C)C)C(=O)CCCN1C(=O)NC(c2ccc(-c3ccccc3)cc2)C(C(=O)OCc2ccccc2)=C1C (stereo not given) | inconclusive: -19% | – |
| CN(C)CCN(C)Cc1ccccc1Sc1cccc2ccccc12 | – | inconclusive: 18.4 µM [falling, partial curve, poor fit] |
| COc1ccc(/C=C/C(=O)c2c(C)cc(C)[nH]c2=O)c2ccccc12 | inactive: -0.169% | – |

Of the compounds above, 2 have an NH in an aromatic ring:

| SMILES | activity change, negative = inhibition | Potency |
| --- | --- | --- |
| CCOC(=O)C1CCCN(CC(=O)Nc2c(C(=O)OC)[nH]c3ccc(C)cc23)C1 (stereo not given) | inactive: -8.41% | – |
| COc1ccc(/C=C/C(=O)c2c(C)cc(C)[nH]c2=O)c2ccccc12 | inactive: -0.169% | – |

Following part:

| SMILES | activity change, negative = inhibition | Potency |
| --- | --- | --- |
| CCc1ccc(NC(=O)C2CCCN(S(=O)(=O)c3cccnc3)C2)cc1 (stereo not given) | – | inconclusive: 35.5 µM [falling, single point] |
| Cc1ccccc1C(=O)c1ccc2c(c1)n(C)c(=O)n2C | – | inconclusive: 12.6 µM [falling, single point] |
| CCc1nc(NCCCN2CCOCC2)c2oc3ccccc3c2n1 | inconclusive: -3.46% | – |
| C=CCNC(=S)N1CCN(S(=O)(=O)c2ccc(C)cc2)CC1 | inactive: -4.95% | – |
| CC1CC1C(=O)OCC(=O)Nc1cccc(F)c1 (stereo not given) | inconclusive: 1.18% | – |
| COc1ccc(NC(=S)Nc2ccccc2)c(OC)c1 | – | inconclusive: 35.5 µM [falling, single point] |
| CC(C)OCCCNC(=O)CCSc1ccc(Cl)cc1 | – | inconclusive: 5.17 µM [rising, partial curve, poor fit] |
| O=C(Nc1ccc2c(c1)OCCO2)c1cc(-n2cnnc2)ccc1Cl | inconclusive: -15.3% | – |
| Cn1c(=O)c2c(ncn2CC(=O)Nc2cccc(S(=O)(=O)Nc3ccccc3F)c2)n(C)c1=O | inconclusive: -3.82% | – |
| CC(=O)NC1=C(NC2CCS(=O)(=O)C2)C(=O)c2ccccc2C1=O (stereo not given) | inactive: 5.22% | – |
| CN(C)c1nc(-c2ccccc2)nc(-c2ccc(Cl)cc2)c1C#N | inconclusive: -10.7% | – |
| O=C(CNC(=O)c1ccccc1)c1ccccc1 | – | inconclusive: 3.26 µM [falling, partial curve] |
| CCOc1ccccc1CNS(=O)(=O)c1cc(-c2cc(C)no2)ccc1C | inconclusive: -0.949% | – |
| COc1ccc(S(=O)(=O)Nc2cccc(NC(C)=O)c2)cc1 | inconclusive: 1.85% | – |
| COC(=O)c1c(NC(=O)c2ccc([N+](=O)[O-])o2)sc2c1CCN(C(C)C)C2 | – | inconclusive: 35.5 µM [falling, single point] |
| Cc1ccc(N2C(=O)SC(Cc3ccccc3)C2=O)cc1 (stereo not given) | inconclusive: 5.51% | – |
| Cc1ccc(S(=O)(=O)CCC(=O)Nc2sccc2C#N)cc1 | inactive: -0.847% | – |
| CC(C)CCNC(=O)CCCOc1cc(=O)n(C)c2ccccc12 | inconclusive: -3.41% | – |
| O=C(c1ccc2ccccc2c1)C1CCCN(C(=O)c2noc3c2CCCC3)C1 (stereo not given) | – | inconclusive: 22.4 µM [falling, single point] |
| CC(Oc1cccc(Cl)c1)C(=O)Nc1cc(S(=O)(=O)N2CCOCC2)ccc1N1CCCCC1 (stereo not given) | inactive: 2.54% | – |
